Results taken from paper PMC6584520.
No constants are given. Whether binding was seen depends on the method and setting. Binding seen in cells or lysates may run through a third protein. Some binding calls cover weakened binding; strength is not graded here. Values belong to the molecule of their own block, whether it stands above or below them.

Chains of the proteins cited; added tags and fusions are not shown.
UniProt Q03135: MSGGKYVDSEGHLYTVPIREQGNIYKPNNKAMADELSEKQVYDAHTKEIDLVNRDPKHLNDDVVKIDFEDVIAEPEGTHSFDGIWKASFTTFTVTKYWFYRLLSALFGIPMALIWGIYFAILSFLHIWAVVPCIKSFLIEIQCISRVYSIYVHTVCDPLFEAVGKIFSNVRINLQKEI
UniProt Q8WUM4: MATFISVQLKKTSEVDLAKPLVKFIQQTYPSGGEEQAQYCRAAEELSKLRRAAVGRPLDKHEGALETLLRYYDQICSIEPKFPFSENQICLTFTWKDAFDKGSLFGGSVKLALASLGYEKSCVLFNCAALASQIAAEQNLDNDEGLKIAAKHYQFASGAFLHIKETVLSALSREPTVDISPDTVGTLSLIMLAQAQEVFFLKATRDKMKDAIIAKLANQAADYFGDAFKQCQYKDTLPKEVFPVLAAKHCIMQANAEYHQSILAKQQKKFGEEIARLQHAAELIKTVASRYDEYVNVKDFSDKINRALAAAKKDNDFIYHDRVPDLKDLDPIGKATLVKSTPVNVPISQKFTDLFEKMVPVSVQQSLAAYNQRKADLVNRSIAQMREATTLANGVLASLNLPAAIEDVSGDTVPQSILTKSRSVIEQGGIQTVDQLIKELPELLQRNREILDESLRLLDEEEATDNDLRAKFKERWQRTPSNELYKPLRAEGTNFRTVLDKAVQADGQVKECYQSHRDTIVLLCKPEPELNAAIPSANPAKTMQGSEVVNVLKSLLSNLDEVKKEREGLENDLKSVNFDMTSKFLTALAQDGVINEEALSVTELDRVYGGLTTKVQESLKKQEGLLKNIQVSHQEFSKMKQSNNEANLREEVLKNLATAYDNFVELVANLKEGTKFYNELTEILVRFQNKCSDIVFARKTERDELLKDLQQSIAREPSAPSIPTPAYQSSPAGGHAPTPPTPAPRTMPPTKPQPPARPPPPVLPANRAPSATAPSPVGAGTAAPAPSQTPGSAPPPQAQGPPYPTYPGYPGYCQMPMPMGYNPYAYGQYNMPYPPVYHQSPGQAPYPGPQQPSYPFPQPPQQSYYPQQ

How the values were obtained:
[1] = biological target: T1, Occludin (human (endogenous in human brain vascular pericytes)) (UniProt Q16625); assay: co-IP; co-immunoprecipitation in human brain vascular pericytes; bait not told
T1 sequence: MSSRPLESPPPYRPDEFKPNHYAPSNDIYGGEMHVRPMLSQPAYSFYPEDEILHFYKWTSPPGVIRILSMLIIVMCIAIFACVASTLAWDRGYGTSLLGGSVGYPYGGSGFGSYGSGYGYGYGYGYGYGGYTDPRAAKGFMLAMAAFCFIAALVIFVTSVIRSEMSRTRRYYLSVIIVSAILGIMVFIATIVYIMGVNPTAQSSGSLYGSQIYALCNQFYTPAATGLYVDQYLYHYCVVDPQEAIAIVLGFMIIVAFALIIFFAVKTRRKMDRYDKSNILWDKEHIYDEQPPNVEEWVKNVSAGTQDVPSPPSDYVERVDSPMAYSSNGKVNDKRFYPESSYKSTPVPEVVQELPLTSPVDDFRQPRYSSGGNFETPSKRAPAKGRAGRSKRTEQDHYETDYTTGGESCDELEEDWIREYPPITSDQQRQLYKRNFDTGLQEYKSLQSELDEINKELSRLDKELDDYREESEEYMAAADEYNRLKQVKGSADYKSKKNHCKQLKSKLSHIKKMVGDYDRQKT

[2] = biological target: caveolin-1 (human (endogenous in human brain vascular pericytes)) (UniProt Q03135); assay: as above

binding [1]: binds
binding [2]: binds
Molecule: Alix (from UniProt Q8WUM4 1-868)

binding [2]: binds
B1: Occludin (protein, UniProt Q16625 1-522)
chain: T1 sequence
